Data from publication PMC9974832.
Results are given in words; binding and its absence hold for the method and conditions named. In cells and extracts the contact can be indirect. Some results given as binding are weak or reduced against the parent protein; the word gives no strength.

By UniProt entry, the sequences of proteins in these tests, tags left out.
UniProt Q96B97: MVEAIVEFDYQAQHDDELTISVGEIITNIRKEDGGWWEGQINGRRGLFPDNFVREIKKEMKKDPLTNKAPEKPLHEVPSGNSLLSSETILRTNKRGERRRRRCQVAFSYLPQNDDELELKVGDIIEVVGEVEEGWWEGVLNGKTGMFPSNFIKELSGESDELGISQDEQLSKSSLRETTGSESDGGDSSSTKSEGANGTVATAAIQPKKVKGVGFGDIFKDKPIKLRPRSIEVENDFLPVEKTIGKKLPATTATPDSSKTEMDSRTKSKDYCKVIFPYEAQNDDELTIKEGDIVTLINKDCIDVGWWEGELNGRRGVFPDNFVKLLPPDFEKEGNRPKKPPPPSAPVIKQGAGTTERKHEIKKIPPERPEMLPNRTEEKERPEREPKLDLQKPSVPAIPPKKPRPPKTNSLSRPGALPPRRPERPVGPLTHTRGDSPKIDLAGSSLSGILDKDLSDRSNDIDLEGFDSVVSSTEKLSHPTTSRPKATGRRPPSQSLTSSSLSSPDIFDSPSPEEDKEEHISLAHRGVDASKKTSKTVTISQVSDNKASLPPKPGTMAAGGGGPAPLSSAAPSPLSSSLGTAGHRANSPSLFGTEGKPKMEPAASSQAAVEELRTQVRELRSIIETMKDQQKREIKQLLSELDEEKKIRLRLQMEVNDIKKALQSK
UniProt Q8R550: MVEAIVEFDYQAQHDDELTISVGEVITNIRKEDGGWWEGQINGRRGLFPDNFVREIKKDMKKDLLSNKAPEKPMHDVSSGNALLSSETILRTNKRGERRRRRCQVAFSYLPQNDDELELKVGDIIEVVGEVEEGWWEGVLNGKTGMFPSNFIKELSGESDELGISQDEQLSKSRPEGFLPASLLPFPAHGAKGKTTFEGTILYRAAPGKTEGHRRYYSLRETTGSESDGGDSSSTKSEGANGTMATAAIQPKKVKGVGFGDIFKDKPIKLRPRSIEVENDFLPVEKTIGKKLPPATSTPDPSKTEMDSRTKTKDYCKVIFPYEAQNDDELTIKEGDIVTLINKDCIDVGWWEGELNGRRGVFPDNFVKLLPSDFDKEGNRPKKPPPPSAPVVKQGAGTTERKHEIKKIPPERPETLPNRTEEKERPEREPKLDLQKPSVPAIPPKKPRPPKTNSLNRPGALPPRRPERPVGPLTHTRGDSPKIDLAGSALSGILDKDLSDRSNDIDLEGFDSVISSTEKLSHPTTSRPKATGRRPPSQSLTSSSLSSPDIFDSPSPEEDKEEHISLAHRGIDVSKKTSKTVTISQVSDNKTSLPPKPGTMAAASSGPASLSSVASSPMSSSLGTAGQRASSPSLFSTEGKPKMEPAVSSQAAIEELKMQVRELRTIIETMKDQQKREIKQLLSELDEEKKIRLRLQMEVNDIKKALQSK

Columns and labels:
[1] = molecular target: T1, ARAP1 (human (endogenous in HRMCs)) (UniProt Q96P48); experiment: co-IP; HRMC protein extracts (normal glucose and high glucose); immunoprecipitation with mouse anti-ARAP1 or control mouse IgG, blot with rabbit anti-CIN85
T1 sequence: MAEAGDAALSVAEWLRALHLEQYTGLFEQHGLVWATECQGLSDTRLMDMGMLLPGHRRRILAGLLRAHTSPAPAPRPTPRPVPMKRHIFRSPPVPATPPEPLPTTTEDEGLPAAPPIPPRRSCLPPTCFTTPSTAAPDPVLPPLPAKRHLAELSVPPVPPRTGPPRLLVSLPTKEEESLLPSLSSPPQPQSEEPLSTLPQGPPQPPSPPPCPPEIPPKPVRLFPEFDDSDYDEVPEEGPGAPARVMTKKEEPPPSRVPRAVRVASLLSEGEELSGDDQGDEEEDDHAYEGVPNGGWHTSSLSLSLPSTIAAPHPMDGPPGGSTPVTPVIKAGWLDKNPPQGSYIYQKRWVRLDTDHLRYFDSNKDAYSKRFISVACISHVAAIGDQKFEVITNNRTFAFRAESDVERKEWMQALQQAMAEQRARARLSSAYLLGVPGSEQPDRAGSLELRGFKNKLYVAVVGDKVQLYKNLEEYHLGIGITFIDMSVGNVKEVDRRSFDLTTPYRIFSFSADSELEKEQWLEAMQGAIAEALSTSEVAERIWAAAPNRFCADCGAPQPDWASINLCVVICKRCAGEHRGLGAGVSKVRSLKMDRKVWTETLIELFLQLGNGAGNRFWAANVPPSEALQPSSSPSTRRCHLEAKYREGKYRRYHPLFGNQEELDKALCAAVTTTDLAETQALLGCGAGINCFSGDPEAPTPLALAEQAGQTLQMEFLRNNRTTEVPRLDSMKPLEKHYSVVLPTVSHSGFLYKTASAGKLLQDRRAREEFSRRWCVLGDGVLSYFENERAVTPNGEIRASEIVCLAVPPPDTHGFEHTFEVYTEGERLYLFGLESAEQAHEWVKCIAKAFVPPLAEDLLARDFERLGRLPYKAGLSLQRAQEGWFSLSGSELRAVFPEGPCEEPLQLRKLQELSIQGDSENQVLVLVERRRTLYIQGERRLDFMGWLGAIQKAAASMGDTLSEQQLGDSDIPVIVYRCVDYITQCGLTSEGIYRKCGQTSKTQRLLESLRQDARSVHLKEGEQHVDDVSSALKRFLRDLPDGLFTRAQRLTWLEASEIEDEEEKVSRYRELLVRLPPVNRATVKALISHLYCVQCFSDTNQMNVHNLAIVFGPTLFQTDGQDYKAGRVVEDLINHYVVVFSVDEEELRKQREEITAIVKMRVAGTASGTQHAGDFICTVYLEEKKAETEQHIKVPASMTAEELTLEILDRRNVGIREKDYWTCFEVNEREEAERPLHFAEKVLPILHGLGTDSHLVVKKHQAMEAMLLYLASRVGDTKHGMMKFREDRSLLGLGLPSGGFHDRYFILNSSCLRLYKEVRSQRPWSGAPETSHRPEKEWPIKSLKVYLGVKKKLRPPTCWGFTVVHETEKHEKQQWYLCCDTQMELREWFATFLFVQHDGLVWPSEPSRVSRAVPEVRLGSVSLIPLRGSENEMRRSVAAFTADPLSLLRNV

[2] = molecular target: T2, ARAP1 (mouse) (mouse (endogenous in isolated glomeruli)) (UniProt Q4LDD4); experiment: co-IP; lysates of isolated mouse glomeruli; Dynabeads Protein G Immunoprecipitation kit; immunoprecipitation with rabbit anti-ARAP1 or control rabbit IgG, blot with rabbit anti-CIN85
T2 sequence: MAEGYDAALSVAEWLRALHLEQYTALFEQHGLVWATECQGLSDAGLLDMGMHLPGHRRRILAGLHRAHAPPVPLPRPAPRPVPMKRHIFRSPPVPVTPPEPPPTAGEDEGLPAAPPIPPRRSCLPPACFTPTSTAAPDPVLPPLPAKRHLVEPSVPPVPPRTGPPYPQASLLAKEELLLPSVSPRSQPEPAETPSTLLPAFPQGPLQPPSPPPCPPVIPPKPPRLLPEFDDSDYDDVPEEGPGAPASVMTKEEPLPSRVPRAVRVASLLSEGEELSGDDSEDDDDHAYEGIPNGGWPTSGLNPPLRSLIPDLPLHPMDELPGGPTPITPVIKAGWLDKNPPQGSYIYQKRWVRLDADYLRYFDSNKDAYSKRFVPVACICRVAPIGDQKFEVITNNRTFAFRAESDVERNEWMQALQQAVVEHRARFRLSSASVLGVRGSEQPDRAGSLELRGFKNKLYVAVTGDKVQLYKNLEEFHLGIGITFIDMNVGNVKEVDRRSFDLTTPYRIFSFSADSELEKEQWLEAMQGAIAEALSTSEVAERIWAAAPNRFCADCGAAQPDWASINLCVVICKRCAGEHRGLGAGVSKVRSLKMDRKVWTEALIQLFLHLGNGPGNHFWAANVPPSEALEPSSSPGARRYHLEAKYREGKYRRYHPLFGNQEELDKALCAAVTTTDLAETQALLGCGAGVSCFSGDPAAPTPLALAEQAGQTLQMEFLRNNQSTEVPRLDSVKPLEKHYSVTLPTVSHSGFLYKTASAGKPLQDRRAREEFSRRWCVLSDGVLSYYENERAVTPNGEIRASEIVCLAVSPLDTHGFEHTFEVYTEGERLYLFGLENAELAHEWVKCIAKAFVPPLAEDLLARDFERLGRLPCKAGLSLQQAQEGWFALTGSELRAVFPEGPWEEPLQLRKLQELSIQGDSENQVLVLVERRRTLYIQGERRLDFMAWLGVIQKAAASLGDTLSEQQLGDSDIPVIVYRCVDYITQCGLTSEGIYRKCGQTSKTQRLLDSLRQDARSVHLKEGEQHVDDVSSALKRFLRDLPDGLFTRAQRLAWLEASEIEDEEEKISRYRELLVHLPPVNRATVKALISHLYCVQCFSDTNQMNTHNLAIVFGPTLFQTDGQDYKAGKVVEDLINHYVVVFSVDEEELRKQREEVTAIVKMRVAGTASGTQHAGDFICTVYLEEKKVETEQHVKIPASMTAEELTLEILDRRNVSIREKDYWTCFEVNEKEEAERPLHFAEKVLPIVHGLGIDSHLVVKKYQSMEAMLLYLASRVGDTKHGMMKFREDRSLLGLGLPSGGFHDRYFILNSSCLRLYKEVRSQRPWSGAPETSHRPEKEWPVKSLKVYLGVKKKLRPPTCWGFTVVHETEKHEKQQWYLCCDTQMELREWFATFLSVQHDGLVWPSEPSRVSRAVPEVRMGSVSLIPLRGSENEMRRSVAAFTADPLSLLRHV

With CIN85 (from UniProt Q96B97 1-665) the binding [1] was “binds”.

For “CIN85 (mouse) (from UniProt Q8R550 1-709)”, the binding [2] was “binds”.
